{"sequences": {"note": "Amino acid sequences for entries named in this document (tags omitted). Residues count along the entry.", "UniProt Q96CB9, residues 26-384": "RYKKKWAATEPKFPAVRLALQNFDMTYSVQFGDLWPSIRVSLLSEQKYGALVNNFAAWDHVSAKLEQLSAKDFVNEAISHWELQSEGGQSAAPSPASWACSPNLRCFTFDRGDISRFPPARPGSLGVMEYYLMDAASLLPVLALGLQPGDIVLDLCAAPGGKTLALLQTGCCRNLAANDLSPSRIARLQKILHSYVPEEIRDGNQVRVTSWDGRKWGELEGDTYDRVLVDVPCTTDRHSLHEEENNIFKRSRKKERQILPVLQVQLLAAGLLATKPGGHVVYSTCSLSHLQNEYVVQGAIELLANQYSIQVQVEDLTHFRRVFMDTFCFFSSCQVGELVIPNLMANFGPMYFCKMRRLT"}, "source": "paper PMC8209036", "about": "“Structural basis for late maturation steps of the human mitoribosomal large subunit” (Nature Communications, 2021)", "key": {"[1]": {"target": "rRNA methyltransferase NSUN4 (human (endogenous in HEK293T)) (UniProt Q96CB9)", "assay": "cryo-EM structure; GTPBP5IP mt-LSU assembly intermediate: native complex from mitochondria of HEK293T cells expressing GTPBP5::FLAG, isolated on anti-FLAG M2 agarose and eluted with 3x FLAG peptide; 3.1 A reconstruction (3.2 A for the mtEF-Tu- and MTG1-containing particles)"}, "[2]": {"target": "rRNA methyltransferase NSUN4 (human (endogenous in HEK293T)) (UniProt Q96CB9)", "assay": "cryo-EM structure; GTPBP5KO mt-LSU assembly intermediate: native mt-LSU from mitochondria of GTPBP5 knock-out HEK293T cells, sucrose cushion and 15-30% sucrose gradient; 2.6 A reconstruction"}}, "note": "These are yes or no findings as the source states them, for the method shown. Some entries that bind do so weakly or less than the wild type.", "data": [{"binder": "mitochondrial transcription termination factor 4 (MTERF4) (protein, UniProt Q7Z6M4 43-381) LTTASNGGVIEELSCVRSNNYVQEPECRRNLVQCLLEKQGTPVVQGSLELERVMSSLLDMGFSNAHINELLSVRRGASLQQLLDIISEFILLGLNPEPVCVVLKKSPQLLKLPIMQMRKRSSYLQKLGLGEGKLKRVLYCCPEIFTMRQQDINDTVRLLKEKCLFTVQQVTKILHSCPSVLREDLGQLEYKFQYAYFRMGIKHPDIVKSEYLQYSLTKIKQRHIYLERLGRYQTPDKKGQTQIPNPLLKDILRVSEAEFLARTACTSVEEFQVFKKLLAREEEESESSTSDDKRASLDEDEDDDDEEDNDEDDNDEDDDDEDDDEAEDNDEDEDDDEEE", "values": [{"measurement": "binding", "setting": "[1]", "value": "binds"}, {"measurement": "binding", "setting": "[2]", "value": "binds"}]}]}
